# Data reported in the supplement of paper PMC6411743.
# Amino acid sequences for entries named in this document (tags omitted). A change or cut given only in a name is not applied to a line headed by its entry.
# UniProt P04424, whole entry: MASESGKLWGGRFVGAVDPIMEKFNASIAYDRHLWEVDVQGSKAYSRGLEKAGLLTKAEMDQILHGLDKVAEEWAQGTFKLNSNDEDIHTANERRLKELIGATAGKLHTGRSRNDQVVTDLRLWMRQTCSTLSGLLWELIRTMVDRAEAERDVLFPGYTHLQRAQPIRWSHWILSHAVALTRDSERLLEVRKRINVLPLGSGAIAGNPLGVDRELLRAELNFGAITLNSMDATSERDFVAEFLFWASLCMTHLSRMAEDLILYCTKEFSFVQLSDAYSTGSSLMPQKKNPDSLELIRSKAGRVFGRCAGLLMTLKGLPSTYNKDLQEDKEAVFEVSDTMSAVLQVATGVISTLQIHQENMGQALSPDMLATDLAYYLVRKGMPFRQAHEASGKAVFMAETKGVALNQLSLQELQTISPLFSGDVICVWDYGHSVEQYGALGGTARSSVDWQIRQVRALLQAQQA
# UniProt O75037: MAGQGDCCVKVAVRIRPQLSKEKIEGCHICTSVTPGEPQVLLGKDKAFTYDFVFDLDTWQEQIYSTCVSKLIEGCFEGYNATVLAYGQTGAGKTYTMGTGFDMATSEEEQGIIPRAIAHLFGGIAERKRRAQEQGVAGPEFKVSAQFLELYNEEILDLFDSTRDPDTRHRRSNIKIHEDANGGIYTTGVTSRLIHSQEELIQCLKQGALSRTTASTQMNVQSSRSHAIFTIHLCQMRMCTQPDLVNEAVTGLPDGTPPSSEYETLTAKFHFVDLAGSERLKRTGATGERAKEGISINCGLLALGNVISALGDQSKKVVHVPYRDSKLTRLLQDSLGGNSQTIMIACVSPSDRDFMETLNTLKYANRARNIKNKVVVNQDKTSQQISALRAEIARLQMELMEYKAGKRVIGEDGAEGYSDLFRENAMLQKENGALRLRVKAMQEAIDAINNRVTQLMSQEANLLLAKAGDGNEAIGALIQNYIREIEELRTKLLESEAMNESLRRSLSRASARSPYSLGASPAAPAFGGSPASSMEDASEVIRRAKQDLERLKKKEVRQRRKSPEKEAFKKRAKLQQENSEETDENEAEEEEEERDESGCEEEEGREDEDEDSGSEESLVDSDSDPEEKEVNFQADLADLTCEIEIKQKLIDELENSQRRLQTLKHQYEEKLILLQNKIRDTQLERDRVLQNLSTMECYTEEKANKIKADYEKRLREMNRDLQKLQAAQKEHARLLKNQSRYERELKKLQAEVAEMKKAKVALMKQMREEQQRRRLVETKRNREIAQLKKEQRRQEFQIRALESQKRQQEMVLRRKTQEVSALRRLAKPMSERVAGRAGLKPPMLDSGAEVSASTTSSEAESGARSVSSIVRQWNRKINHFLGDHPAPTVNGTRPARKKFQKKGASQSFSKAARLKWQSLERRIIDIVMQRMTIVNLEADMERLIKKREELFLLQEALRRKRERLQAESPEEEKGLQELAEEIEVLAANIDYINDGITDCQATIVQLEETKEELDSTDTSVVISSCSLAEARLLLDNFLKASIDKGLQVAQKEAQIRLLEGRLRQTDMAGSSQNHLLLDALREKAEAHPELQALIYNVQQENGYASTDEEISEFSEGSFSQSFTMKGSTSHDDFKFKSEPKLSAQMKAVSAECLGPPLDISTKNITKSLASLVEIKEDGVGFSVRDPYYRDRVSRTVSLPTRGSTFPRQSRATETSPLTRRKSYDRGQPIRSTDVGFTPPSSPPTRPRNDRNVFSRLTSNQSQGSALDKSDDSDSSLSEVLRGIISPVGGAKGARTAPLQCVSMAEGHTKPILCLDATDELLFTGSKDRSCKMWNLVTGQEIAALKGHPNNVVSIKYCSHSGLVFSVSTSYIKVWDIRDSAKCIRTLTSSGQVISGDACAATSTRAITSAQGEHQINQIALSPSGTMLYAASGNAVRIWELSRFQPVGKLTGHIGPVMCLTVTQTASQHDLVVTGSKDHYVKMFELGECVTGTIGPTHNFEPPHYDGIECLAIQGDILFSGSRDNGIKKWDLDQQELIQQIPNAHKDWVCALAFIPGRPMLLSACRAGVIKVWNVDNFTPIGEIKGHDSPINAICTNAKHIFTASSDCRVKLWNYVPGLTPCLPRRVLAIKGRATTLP
# UniProt O75398: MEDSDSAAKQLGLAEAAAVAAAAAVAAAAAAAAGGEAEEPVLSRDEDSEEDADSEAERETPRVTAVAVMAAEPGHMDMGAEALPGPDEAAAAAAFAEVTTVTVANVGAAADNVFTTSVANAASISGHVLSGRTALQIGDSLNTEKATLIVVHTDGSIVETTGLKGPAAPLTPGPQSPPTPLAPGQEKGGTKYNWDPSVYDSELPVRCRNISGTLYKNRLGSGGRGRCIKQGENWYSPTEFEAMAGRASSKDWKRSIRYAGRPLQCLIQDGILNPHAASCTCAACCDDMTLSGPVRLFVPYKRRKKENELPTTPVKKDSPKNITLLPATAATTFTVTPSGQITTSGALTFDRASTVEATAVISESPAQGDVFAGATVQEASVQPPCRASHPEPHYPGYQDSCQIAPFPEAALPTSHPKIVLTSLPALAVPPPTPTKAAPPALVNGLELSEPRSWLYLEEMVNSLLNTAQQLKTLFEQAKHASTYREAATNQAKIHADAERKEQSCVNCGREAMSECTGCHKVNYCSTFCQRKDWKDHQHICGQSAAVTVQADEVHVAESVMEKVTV
# UniProt O76003: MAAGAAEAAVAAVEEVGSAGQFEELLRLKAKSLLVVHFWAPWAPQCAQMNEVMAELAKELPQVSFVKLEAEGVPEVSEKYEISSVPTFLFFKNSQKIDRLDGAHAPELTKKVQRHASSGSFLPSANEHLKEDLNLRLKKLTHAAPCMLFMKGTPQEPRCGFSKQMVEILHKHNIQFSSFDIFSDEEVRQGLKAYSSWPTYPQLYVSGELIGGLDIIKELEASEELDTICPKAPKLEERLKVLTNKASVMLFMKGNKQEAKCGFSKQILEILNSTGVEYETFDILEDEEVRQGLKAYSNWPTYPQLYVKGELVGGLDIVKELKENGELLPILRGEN
# UniProt O75419: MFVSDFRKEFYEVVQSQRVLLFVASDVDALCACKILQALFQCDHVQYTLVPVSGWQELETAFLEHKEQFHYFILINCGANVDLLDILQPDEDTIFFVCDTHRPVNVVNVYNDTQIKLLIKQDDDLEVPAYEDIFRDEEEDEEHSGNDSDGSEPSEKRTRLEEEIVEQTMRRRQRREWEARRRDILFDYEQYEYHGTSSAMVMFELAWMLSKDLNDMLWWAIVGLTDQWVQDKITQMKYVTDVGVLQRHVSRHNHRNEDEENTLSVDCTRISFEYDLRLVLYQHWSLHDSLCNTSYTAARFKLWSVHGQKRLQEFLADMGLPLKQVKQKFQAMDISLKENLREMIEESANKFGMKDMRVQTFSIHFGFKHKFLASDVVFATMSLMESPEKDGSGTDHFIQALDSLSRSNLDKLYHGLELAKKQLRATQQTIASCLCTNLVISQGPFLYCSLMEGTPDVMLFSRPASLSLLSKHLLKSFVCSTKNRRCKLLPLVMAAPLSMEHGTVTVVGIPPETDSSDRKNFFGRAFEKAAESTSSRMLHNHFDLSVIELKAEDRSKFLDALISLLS
# UniProt O95400: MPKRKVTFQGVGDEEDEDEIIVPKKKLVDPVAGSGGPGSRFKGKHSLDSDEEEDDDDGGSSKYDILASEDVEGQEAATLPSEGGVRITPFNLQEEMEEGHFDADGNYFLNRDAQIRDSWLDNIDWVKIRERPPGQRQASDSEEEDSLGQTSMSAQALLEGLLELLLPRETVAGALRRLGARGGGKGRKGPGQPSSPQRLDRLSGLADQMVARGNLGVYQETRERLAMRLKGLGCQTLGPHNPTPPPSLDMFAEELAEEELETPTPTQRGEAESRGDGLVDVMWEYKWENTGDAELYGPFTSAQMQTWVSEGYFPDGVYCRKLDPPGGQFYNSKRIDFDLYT
# UniProt O75427: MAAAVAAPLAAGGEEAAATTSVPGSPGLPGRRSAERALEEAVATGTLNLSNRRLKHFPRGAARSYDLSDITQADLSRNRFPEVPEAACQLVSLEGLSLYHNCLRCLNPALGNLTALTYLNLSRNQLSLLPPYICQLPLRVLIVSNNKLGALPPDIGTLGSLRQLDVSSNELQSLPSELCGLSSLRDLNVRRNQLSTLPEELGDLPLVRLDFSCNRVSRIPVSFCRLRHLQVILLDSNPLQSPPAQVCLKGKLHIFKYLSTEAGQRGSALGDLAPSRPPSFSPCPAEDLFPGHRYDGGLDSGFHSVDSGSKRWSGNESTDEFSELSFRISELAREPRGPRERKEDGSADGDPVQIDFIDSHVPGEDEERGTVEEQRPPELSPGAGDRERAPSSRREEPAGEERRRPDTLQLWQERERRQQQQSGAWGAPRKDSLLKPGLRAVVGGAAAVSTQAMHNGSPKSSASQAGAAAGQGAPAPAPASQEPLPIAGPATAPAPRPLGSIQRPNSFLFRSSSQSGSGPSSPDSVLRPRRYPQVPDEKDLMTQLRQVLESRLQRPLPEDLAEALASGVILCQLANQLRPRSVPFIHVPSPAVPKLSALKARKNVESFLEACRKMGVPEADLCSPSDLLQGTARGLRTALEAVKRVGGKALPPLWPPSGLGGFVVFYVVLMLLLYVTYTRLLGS
# UniProt O95365: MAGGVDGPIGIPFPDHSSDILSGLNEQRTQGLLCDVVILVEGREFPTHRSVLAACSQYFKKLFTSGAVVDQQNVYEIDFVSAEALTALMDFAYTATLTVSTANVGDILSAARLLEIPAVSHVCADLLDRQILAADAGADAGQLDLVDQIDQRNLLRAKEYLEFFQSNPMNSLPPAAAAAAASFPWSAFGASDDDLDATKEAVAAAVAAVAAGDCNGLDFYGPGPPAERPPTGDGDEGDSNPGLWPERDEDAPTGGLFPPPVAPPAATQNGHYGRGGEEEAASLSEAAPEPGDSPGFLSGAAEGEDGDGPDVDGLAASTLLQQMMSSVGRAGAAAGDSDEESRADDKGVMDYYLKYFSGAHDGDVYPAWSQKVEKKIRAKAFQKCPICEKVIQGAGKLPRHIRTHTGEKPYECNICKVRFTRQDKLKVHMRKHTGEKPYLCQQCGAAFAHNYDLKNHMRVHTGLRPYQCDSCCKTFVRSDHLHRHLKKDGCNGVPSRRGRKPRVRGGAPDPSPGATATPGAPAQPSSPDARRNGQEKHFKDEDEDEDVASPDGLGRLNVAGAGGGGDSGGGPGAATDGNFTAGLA
# UniProt O75380, whole entry: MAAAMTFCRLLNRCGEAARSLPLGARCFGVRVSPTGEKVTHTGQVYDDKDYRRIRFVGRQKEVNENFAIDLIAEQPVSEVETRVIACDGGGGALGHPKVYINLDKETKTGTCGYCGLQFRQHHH
# UniProt O94919: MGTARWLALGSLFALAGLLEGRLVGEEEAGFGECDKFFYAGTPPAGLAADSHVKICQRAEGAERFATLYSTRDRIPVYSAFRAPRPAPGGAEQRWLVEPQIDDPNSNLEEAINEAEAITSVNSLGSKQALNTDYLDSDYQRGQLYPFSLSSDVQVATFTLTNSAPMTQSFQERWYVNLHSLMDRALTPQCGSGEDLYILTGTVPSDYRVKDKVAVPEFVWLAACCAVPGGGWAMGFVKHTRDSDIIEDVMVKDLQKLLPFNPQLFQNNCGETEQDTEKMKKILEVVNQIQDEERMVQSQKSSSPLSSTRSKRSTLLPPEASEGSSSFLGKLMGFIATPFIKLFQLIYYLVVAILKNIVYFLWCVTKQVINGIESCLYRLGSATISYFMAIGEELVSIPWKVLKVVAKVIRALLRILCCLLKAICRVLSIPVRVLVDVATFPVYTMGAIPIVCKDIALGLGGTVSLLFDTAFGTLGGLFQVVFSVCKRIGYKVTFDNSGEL
# ± gives the standard deviation of the averaged measurements. The list shows a part of the results.
# Compound: Nc1nc2c(ncn2[C@@H]2O[C@H](COP(=O)(O)OP(=O)(O)OP(=O)(O)O)[C@@H](O)[C@H]2O)c(=O)[nH]1 [guanosine triphosphate]
# Assay: NP40-soluble protein abundance relative to vehicle (solubility fold change) (ratio); higher = more soluble protein in presence of GTP
# Method in brief: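 Crude Jurkat lysate, prepared by Dounce homogenisation, was exposed to eight concentrations from 0.1 to 10 mM for 10 min at room temperature and then 3 min at 37 °C. Solubilisation used 0.8% NP40 with benzonase for 60 min at 4 °C, followed by ultracentrifugation and TMT labelling of the supernatant for LC-MS/MS. After vsn normalisation of intensities, each value is the fold change against the detergent-processed vehicle within each replicate, across three independent experiments.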
Target,NP40-soluble protein abundance (concentration: 0.1mM),NP40-soluble protein abundance (concentration: 0.5mM),NP40-soluble protein abundance (concentration: 1mM),NP40-soluble protein abundance (concentration: 2mM),NP40-soluble protein abundance (concentration: 4mM),NP40-soluble protein abundance (concentration: 6mM),NP40-soluble protein abundance (concentration: 8mM),NP40-soluble protein abundance (concentration: 10mM)
UniProt P04424 and related entries,1.06 ± 0.1,1.07 ± 0.1,0.988 ± 0.09,1.06 ± 0.036,0.984 ± 0.13,0.959 ± 0.036,0.953 ± 0.11,0.93 ± 0.096
UniProt O95197 and related entries,1.03 ± 0.035,0.911 ± 0.079,1.01 ± 0.03,0.895 ± 0.052,0.941 ± 0.048,0.895 ± 0.059,0.9 ± 0.068,0.813 ± 0.079
UniProt O75037 and related entries,1 ± 0.032,1.07 ± 0.042,1.12 ± 0.055,1.08 ± 0.051,1.12 ± 0.056,1.14 ± 0.068,1.17 ± 0.099,1.15 ± 0.014
UniProt O75398 and related entries,1.02 ± 0.089,1.03 ± 0.11,1 ± 0.095,1.04 ± 0.16,0.967 ± 0.12,1.05 ± 0.16,1.02 ± 0.051,0.968 ± 0.17
GLRX3 (UniProt O76003),0.92 ± 0.052,0.946 ± 0.058,0.934 ± 0.068,0.882 ± 0.088,0.864 ± 0.075,0.885 ± 0.085,0.885 ± 0.035,0.871 ± 0.081
UniProt O75155 and related entries,1.05 ± 0.057,0.994 ± 0.027,0.973 ± 0.069,0.991 ± 0.024,1.01 ± 0.047,1 ± 0.026,0.993 ± 0.041,0.996 ± 0.036
UniProt O75419 and related entries,1.01 ± 0.15,0.995 ± 0.14,0.875 ± 0.04,0.899 ± 0.082,0.863 ± 0.046,0.874 ± 0.077,0.806 ± 0.058,0.792 ± 0.03
CD2BP2 (UniProt O95400),0.913 ± 0.046,0.959 ± 0.039,1.04 ± 0.024,1.07 ± 0.049,1.17 ± 0.12,1.27 ± 0.099,1.38 ± 0.16,1.51 ± 0.24
NRAS (UniProt P01111),0.988 ± 0.079,0.948 ± 0.1,0.97 ± 0.082,0.889 ± 0.12,0.929 ± 0.12,0.895 ± 0.12,0.927 ± 0.1,0.847 ± 0.091
UniProt O75427 and related entries,0.987 ± 0.066,0.999 ± 0.044,1.12 ± 0.082,1.15 ± 0.26,1.27 ± 0.19,1.21 ± 0.094,1.25 ± 0.23,1.2 ± 0.19
ZBTB7A (UniProt O95365),0.979 ± 0.065,0.999 ± 0.089,1.08 ± 0.14,1.08 ± 0.1,1.06 ± 0.098,1.14 ± 0.091,1.08 ± 0.1,1.21 ± 0.22
STAM2 (UniProt O75886),0.923 ± 0.067,0.914 ± 0.076,0.938 ± 0.11,0.899 ± 0.11,0.877 ± 0.087,0.876 ± 0.082,0.909 ± 0.073,0.909 ± 0.11
NDUFS6 (UniProt O75380),0.927 ± 0.015,0.981 ± 0.023,1.05 ± 0.026,1.04 ± 0.059,0.999 ± 0.073,1.05 ± 0.058,1.06 ± 0.12,1.1 ± 0.16
ENDOD1 (UniProt O94919),0.977 ± 0.016,0.985 ± 0.01,0.965 ± 0.026,0.936 ± 0.041,0.934 ± 0.037,0.941 ± 0.062,0.937 ± 0.044,0.921 ± 0.03
UniProt P05023 and related entries,0.952 ± 0.036,0.974 ± 0.039,0.964 ± 0.037,0.932 ± 0.069,0.919 ± 0.06,0.938 ± 0.058,0.957 ± 0.029,0.937 ± 0.062

# As a short view, part of the list above.
Target,NP40-soluble protein abundance (concentration: 0.1mM),NP40-soluble protein abundance (concentration: 0.5mM),NP40-soluble protein abundance (concentration: 1mM),NP40-soluble protein abundance (concentration: 2mM),NP40-soluble protein abundance (concentration: 4mM),NP40-soluble protein abundance (concentration: 6mM),NP40-soluble protein abundance (concentration: 8mM),NP40-soluble protein abundance (concentration: 10mM)
ENDOD1 (UniProt O94919),0.977 ± 0.016,0.985 ± 0.01,0.965 ± 0.026,0.936 ± 0.041,0.934 ± 0.037,0.941 ± 0.062,0.937 ± 0.044,0.921 ± 0.03
UniProt P05023 and related entries,0.952 ± 0.036,0.974 ± 0.039,0.964 ± 0.037,0.932 ± 0.069,0.919 ± 0.06,0.938 ± 0.058,0.957 ± 0.029,0.937 ± 0.062
